# Library screening results

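Whole-cell assay for inhibitors of Mycobacterium tuberculosis growth, labelled Cornell in the record; the read-out is not stated. The concentration is filed as 10 mM, unlikely as a test dose, so the dose is not known. Higher means stronger inhibition (inferred from two other growth screens of the library). Size under these conditions: about 53,000 compounds, about 900 of them at 50% or above in at least one test.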

Values are the deposited “Percent Effect”, in %. The controls that fix the scale are not given in the record; negative values are as filed. The compounds are a random part of those screened.

| # | compound | effect |
|---|---|---|
| 1 | `Cc1cnn(C2CN(CC(O)c3ccc4c(c3)OCCO4)C2)c1` (stereo unspecified) | 29.9% |
| 2 | `CCN1CCCC1CNC(=O)c1cc(COc2ccccc2F)[nH]n1` (stereo unspecified) | 22.97% |
| 3 | `COc1ccc(C(=O)CCc2nc(C3CC3)no2)cc1` | -2.675% |
| 4 | `Cc1n[nH]c(C)c1-c1nccnc1CC1CCN(C(C)C)CC1` | -33.1% |
| 5 | `COc1ccccc1Oc1cncc(C2CCCN(C)C2)n1` (stereo unspecified) | 10.25% |
| 6 | `O=S(=O)(NCC(O)c1cccs1)c1ccccc1Cl` (stereo unspecified) | -42.62% |
| 7 | `Cc1cc(C)n(CC2CN(Cc3ccc(C(N)=O)cc3)CCO2)n1` (stereo unspecified) | 6.798% |
| 8 | `CN(C)C(=O)Cn1c(C2CC2)c(CN2CCSCC2)c2cccnc21` | 14.78% |
| 9 | `Cc1nsc(C(=O)NCCc2ccc(F)cc2)n1` | 31.3% |
| 10 | `COc1ccc(CN(C(=O)CCC(C)C)c2cnn(C)c2)c(OC)c1` | 18.46% |
| 11 | `Cc1cnc(N2CCC3(CCC(C(=O)NC(C)C)OC3)CC2)nc1` (stereo unspecified) | 19.49% |
| 12 | `O=C(O)C(F)(F)F.[H][C@@]12COC[C@]1(c1nc(C)no1)CN(C(=O)CN(C)C)C2` | 15.06% |
| 13 | `Cc1nc(C2(NCC(=O)NCCc3cccs3)CCCC2)no1` | 1.862% |
| 14 | `CC(O)CN1CCC(CN(C)Cc2ccc(C#N)cc2)CC1` (stereo unspecified) | 13.36% |
| 15 | `Cc1ccc(=O)n(Cc2nc(C(C)OCC(C)C)no2)n1` (stereo unspecified) | -17.02% |
| 16 | `O=C(c1ccc2c(c1)OCO2)N1CCC(Nc2cccnn2)CC1` | -29.81% |
| 17 | `CC(=O)N1CC(=O)N(c2cccnc2)CC12CCN(Cc1nccs1)C2.O=C(O)C(F)(F)F.O=C(O)C(F)(F)F` (stereo unspecified) | 8.734% |
| 18 | `CCN(Cc1nc(COC)no1)Cc1cc2ccc(F)cc2[nH]c1=O` | 8.422% |
| 19 | `Cc1ccc(C)c(-n2ncc(NC(=O)NC3(C)CCOC3)c2C)c1` (stereo unspecified) | -13.86% |
| 20 | `Cc1sc2nc(CCN)nc(N3CCC(N4CCCC4)CC3)c2c1C` | -48.1% |
| 21 | `[H][C@@]12COC[C@]1([H])[C@H](OCc1csc(C)n1)CN2Cc1ccc(F)cc1` | 3.82% |
| 22 | `[H][C@@]12CCN(C(=O)C3CC3)C[C@]1([H])OCCN(c1ccsc1)C2=O` | 16.22% |
| 23 | `Cc1nc(CCN2CCCCC2)n(-c2ccc(F)cc2)n1` | -19.57% |
| 24 | `Nc1cc(-c2cccc3c2CCNC3)ncn1` | 27.7% |
| 25 | `CCc1cc(N2CCN3CCCCC3C2)n2nccc2n1` (stereo unspecified) | -6.09% |
| 26 | `Cn1cc(CCC(=O)N2CCN(Cc3ccncc3)CC2)cn1` | 7.775% |
| 27 | `Cl.OC1(Cn2ccc3ncccc32)CCN(Cc2ccccc2F)CC1` | 6.568% |
| 28 | `O=S(=O)(Nc1cnn(C2CCOCC2)c1)c1ccc(Br)cc1` | 0.3778% |
| 29 | `Cc1ccc(N2CCN(C)c3ncccc3C2)nn1.O=C(O)C(F)(F)F` | 28.12% |
| 30 | `COc1cc(N2CC[C@@H](O)[C@@H]2Cc2ccncc2)ncn1.O=C(O)C(F)(F)F` | 18.56% |
| 31 | `COc1cccc(CC2CCCN2CCCC#N)c1` (stereo unspecified) | 5.386% |
| 32 | `CCOc1ccc(Cl)c(C(=O)NC(Cc2ccccc2)C(N)=O)n1` (stereo unspecified) | -54.53% |
| 33 | `CN1CCCN(C(=O)c2csc(-c3ccc(C(F)(F)F)cc3)n2)CC1` | 15.7% |
| 34 | `CCCNc1ncc(CN2CCC3(CC2)CNC(=O)C3)cn1` | -18.21% |
| 35 | `O=C(O)C(F)(F)F.[H][C@@]12C[C@H](c3nc(C)no3)CN(Cc3ccc4c(c3)OCO4)[C@]1([H])CCO2` | 10.54% |
| 36 | `CC(C)C1SCC(=O)Nc2c1cnn2C(C)C` (stereo unspecified) | 18.65% |
| 37 | `O=C1CCCN1CC1CN(C(=O)N2CCOCC2)Cc2nccn2C1` (stereo unspecified) | 27.36% |
| 38 | `Cc1noc(C2CCN(C(=O)CCNc3ncccn3)CC2)n1` | -39.99% |
| 39 | `O=C(O)C(F)(F)F.[H][C@@]12COC[C@H](C(=O)NCc3ccco3)[C@]1([H])CN(Cc1ccoc1)C2` | -10.46% |
| 40 | `CN(CC1(CO)CCCC1)C(=O)c1cc(COc2ccccc2F)[nH]n1` | 16.03% |
| 41 | `CC(=O)N1CCN(Cc2ccccn2)CC2(CC(=O)N(C)C2)C1.O=C(O)C(F)(F)F.O=C(O)C(F)(F)F` (stereo unspecified) | 9.082% |
| 42 | `O=C(O)C(F)(F)F.O=C(O)C(F)(F)F.O=C(O)C(F)(F)F.[H][C@@]12CCN(Cc3ccccn3)C[C@]1([H])[C@@H](CN(C)Cc1ccco1)OC2` | 38.8% |
| 43 | `O=C(O)C(F)(F)F.c1ncn(Cc2cn3c(n2)CN(CC2CCCCC2)CC3)n1` | 3.207% |
| 44 | `CCCOc1ccc2c(c1)OCC(C(=O)NC(C)Cn1cccn1)=C2` (stereo unspecified) | 15.33% |
| 45 | `Cc1nn(C)c(N(C)C)c1CNCc1cccnc1N(C)C` | -28.96% |
| 46 | `CCC(C)[C@H](N)c1nnc(SCC(=O)Nc2ccc(C)cc2C)o1.Cl` (stereo partly specified) | 10.47% |
| 47 | `CN1CCN(Cc2ccc(-c3ccc4[nH]ccc4c3)nc2)CC1` | 4.099% |
| 48 | `Cc1nc(N)cc(C2CCN2CCC(N)=O)n1` (stereo unspecified) | 17.81% |
| 49 | `CC(C)CCN1CC2(CCN(C3CCCOC3)CC2)OC1=O` (stereo unspecified) | 17.16% |
| 50 | `Cc1cccc(N(CCC(N)=O)C(=O)c2cnccn2)c1` | 12.92% |
| 51 | `COc1nn(C)c2c1CCCN(C(=O)COc1ccccc1)C2` | 3.456% |
| 52 | `Cc1cc(C)nc(Nc2cccc(C3CCCN(CC4CC4)C3)n2)n1` (stereo unspecified) | 1.918% |
| 53 | `N#Cc1cnc2ccccc2c1N1CCN(C(=O)C2CCC2)CC1` | 33.81% |
| 54 | `O=C(CCc1ccccc1)C1CCCN(Cc2cncn2C2CC2)C1` (stereo unspecified) | -6.069% |
| 55 | `CCOCC1CN(C(=O)c2cc(C)oc2C)Cc2c1cnn2C.O=C(O)C(F)(F)F` (stereo unspecified) | 24.53% |
| 56 | `O=C(O)C(F)(F)F.O=C(O)C(F)(F)F.[H][C@]12C[C@@H](Cn3cncn3)N(C)[C@@]1([H])CCN(C1CCOCC1)C2` | 0.6379% |
| 57 | `Cc1cnn(Cc2ccc(NC(=O)N[C@@H]3C=C[C@H](CO)C3)cc2)c1` | 20.48% |
| 58 | `COc1c(CNCc2ccc(OCC(N)=O)cc2)c(C)nn1C` | 6.246% |
| 59 | `c1cn(CCn2cnnc2)c(-c2cc3n(n2)CCCNC3)n1` | -31.58% |
| 60 | `CCn1ccnc1CN1C[C@@H](NC(=O)C2CC2)[C@H](c2ccc(C)cc2)C1` | -2.638% |
| 61 | `CCNC(=O)CN1CCOC(c2ccccc2C(F)(F)F)C1` (stereo unspecified) | -7.213% |
| 62 | `Cc1ccc(CN2CCC3(CC(C(=O)NCC4CC4)=NO3)C2)s1` (stereo unspecified) | -3.001% |

The first 4 entries again:

compound,effect
Cc1cnn(C2CN(CC(O)c3ccc4c(c3)OCCO4)C2)c1 (stereo unspecified),29.9%
CCN1CCCC1CNC(=O)c1cc(COc2ccccc2F)[nH]n1 (stereo unspecified),22.97%
COc1ccc(C(=O)CCc2nc(C3CC3)no2)cc1,-2.675%
Cc1n[nH]c(C)c1-c1nccnc1CC1CCN(C(C)C)CC1,-33.1%

Source: ChEMBL document CHEMBL3988442, “University of Dundee, Small-Polar-MMV Screening Library” (2021).